# Laboratory results: PubChem BioAssay AID2685 (National Center for Advancing Translational Sciences (NCATS), 2010)
# The other results are listed elsewhere or left out. Further columns of the screen follow, without active or inactive calls. Compounds called inactive in the main read-out are mostly missing here. The note in brackets gives the kind of curve behind each potency; many fits are weak.
# Assay: qHTS Assay for Lipid Storage Modulators in Drosophila S3 Cells;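 on cell number change: cells counted by Cell Tracker Red CMTPX staining in the red channel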
# Conditions: BODIPY lipid droplet fluorescence, 18-24 h; for cell number change: measured here: cell count max response, cells fed with added oleic acid
# How it was run: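 Laser-scanning cytometry quantifies lipid droplet accumulation (500–530 nm total intensity; droplet/cell object ratio) in oleic acid-fed (400 uM added) Drosophila S3 cells treated with a concentration series. 20 uM Triacsin C defined 100% inhibition.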
# [1] = measured here: cell number channel AC50, cells fed with added oleic acid
# [2] = measured here: lipid fluorescence (Fed channel) AC50, cells fed with added oleic acid
smiles,measurement,setting,value
CCOC(=O)c1[nH]c2ccc(OC)cc2c1NC(=O)c1ccc2c(c1)OCO2,cell number change,,78.9%
same,AC50,[1],"29.1 µM [rising, single point]"
same,AC50,[2],"20.6 µM [rising, partial curve]"
COc1ccccc1C(=O)NC(CCSC)C(=O)OCC(=O)NC(=O)NCc1ccco1 (stereo unspecified),cell number change,,13.1%
same,AC50,[1],"0.058 µM [rising, full curve, poor fit]"
CCOC(=O)N1CCC(NS(=O)(=O)c2ccc3c(c2)C(C)(C)C(=O)N3C)CC1,AC50,[2],"16.4 µM [falling, partial curve, poor fit]"
CCOC(=O)COc1cc(OCC(=O)OCC)c2c(=O)cc(-c3ccccc3)oc2c1,cell number change,,-37.8%
same,AC50,[1],"3.66 µM [falling, full curve]"
CC(=O)NC1CC(C)(C)N(OC(C)=O)C(C)(C)C1,cell number change,,7.62%
same,AC50,[2],"11.6 µM [rising, partial curve, poor fit]"
CC(=O)CCc1ccc2oc(C(=O)O)c(C)c2c1,cell number change,,3.79%
same,AC50,[2],"0.00731 µM [falling, full curve, poor fit]"
Cc1noc(C)c1S(=O)(=O)N1CCC(C(=O)N2CCN(c3ccccc3Cl)CC2)CC1,AC50,[2],"29.1 µM [rising, single point]"
Cc1cc(NC(=O)CSc2nc(=O)cc(N)n2-c2ccc(F)cc2)no1,cell number change,,-5.52%
same,AC50,[2],"5.8 µM [falling, partial curve, poor fit]"
O=C(CC(c1ccccc1)c1ccccc1)Nc1ccc(O)cc1,cell number change,,-40.6%
same,AC50,[1],"18.4 µM [falling, partial curve]"
same,AC50,[2],"0.651 µM [falling, full curve]"
CCOC(=O)CNC(=O)Cn1cnc2c(nnn2-c2cccc(Cl)c2)c1=O,cell number change,,-48.7%
same,AC50,[1],"7.31 µM [falling, partial curve, poor fit]"
O=C(NCc1ccccc1)N1CCNCC1,cell number change,,21.2%
same,AC50,[2],"0.58 µM [rising, single point]"
O=C(CN1C(=O)C2C3C=CC(C4CC34)C2C1=O)OCC(=O)c1ccccc1 (stereo unspecified),cell number change,,60.3%
same,AC50,[1],"18.4 µM [rising, single point]"
same,AC50,[2],"29.1 µM [rising, single point]"
O=C(N/N=C/c1sc(=O)[nH]c1-[n+]1ccc2ccccc2c1)c1ccccc1[O-],cell number change,,3.96%
same,AC50,[2],"29.1 µM [falling, single point]"
O=S(=O)(c1ccc(F)cc1)N1CCN(CC2CC3C=CC2C3)CC1 (stereo unspecified),cell number change,,4.96%
CCOC(=O)c1c(-c2cccc(N)c2)cn2ccccc12,AC50,[1],"6.51 µM [rising, partial curve, poor fit]"
same,AC50,[2],"6.51 µM [rising, partial curve, poor fit]"
Cc1cc(=O)[nH]c(-n2nc(C)cc2C)n1,cell number change,,8.12%
same,AC50,[2],"29.1 µM [rising, single point]"
COc1ccc(CNC(=O)C2CCCN(C(=O)Nc3ccccc3OC)C2)cc1 (stereo unspecified),cell number change,,10.4%
same,AC50,[2],"0.366 µM [rising, partial curve]"
Cc1ccc(-c2noc(C3CCN(S(=O)(=O)c4ccc5c(c4)OCCO5)CC3)n2)o1,cell number change,,-35.5%
same,AC50,[1],"16.4 µM [falling, single point]"
Cc1ccc(NC(=O)NCCCN2CCCC2=O)c(C)c1,cell number change,,-8.38%
same,AC50,[2],"20.6 µM [rising, single point]"
CC(C)CCNC(=O)C1CC(=O)N(CCc2ccccc2)C1 (stereo unspecified),cell number change,,44.7%
same,AC50,[1],"29.1 µM [rising, single point]"
COc1ccc(NC(=O)CCCCCN2C(=O)c3ccccc3C2=O)c(OC)c1,cell number change,,2.36%
same,AC50,[2],"29.1 µM [rising, single point]"
COc1ccccc1N(CC(N)=O)S(=O)(=O)c1ccc(C)cc1,cell number change,,-34%
same,AC50,[1],"29.1 µM [falling, single point]"
same,AC50,[2],"32.6 µM [falling, single point]"
CC1CN(CC(O)COc2ccc(C(C)C)cc2)CC(C)O1 (stereo unspecified),AC50,[1],"6.51 µM [rising, single point]"
CC(=O)Nc1ccc(S(=O)(=O)N2CCN(Cc3csc(C)n3)CC2)cc1,cell number change,,15.3%
same,AC50,[1],"0.731 µM [rising, full curve, poor fit]"
N#CCCn1cc(/C=C/C(=O)O)c(-c2ccc(F)cc2)n1,cell number change,,50.9%
same,AC50,[1],"18.4 µM [rising, partial curve, poor fit]"
same,AC50,[2],"20.6 µM [rising, single point]"
Cc1ccc(CS(=O)Cc2ccc(C(=O)N3CCN(c4ccccn4)CC3)o2)cc1 (stereo unspecified),AC50,[2],"5.8 µM [falling, full curve, poor fit]"
CCc1cccc(CC)c1NC(=O)C1CC(=O)N(c2ccc3c(c2)OCCO3)C1 (stereo unspecified),cell number change,,34.9%
same,AC50,[1],"5.17 µM [rising, single point]"
same,AC50,[2],"6.51 µM [falling, single point]"
O=C(COc1ccc2cc(Br)ccc2c1)N1CCCC1,cell number change,,8.11%
same,AC50,[2],"29.1 µM [falling, single point]"
CC(=O)N1CCC(N(CCN2CCOCC2)C(=S)Nc2cc(C)cc(C)c2)CC1,cell number change,,30.1%
S=C(NCCN(C1CCCCC1)C1CCCC1)Nc1cccc(Cl)c1,cell number change,,-69.4%
same,AC50,[1],"29.1 µM [falling, single point]"
same,AC50,[2],"29.1 µM [falling, single point]"
N#Cc1cc2c(nc1SCc1ccccc1)CCCCC2,cell number change,,-18.7%
COc1ccc(N2C(=O)CC(N3CCN(c4ccc(S(=O)(=O)N5CCCC5)cc4)CC3)C2=O)cc1 (stereo unspecified),cell number change,,-9.71%
same,AC50,[2],"6.51 µM [falling, single point]"
NC(=O)CC(NC(=O)Cc1ccc(Cl)cc1)c1ccc(NCCOc2ccccc2)c([N+](=O)[O-])c1 (stereo unspecified),cell number change,,90.1%
same,AC50,[1],"25.9 µM [rising, partial curve, poor fit]"
Cc1ccc2[nH]c3c(=O)n(CC(=O)N4CC(C)CC(C)C4)ncc3c2c1 (stereo unspecified),cell number change,,25.2%
same,AC50,[1],"0.13 µM [rising, full curve, poor fit]"
same,AC50,[2],"29.1 µM [falling, single point]"
O=C(c1ccccc1)c1ccccn1,cell number change,,-34.7%
same,AC50,[1],"16.4 µM [falling, single point]"
same,AC50,[2],"29.1 µM [falling, single point]"
Oc1ccccc1N1CCN(Cc2ncc(-c3ccccc3)o2)CC1,cell number change,,21.4%
same,AC50,[1],"0.517 µM [rising, full curve, poor fit]"
same,AC50,[2],"29.1 µM [falling, single point]"
COc1cc2c(cc1[N+](=O)[O-])n(C(C)C)c(=O)n2C(C)C,cell number change,,-23.9%
same,AC50,[2],"18.4 µM [falling, single point]"
COc1ccc(S(=O)(=O)Nc2ccc3c(c2)OCO3)cc1C(=O)O,cell number change,,11.4%
same,AC50,[2],"29.1 µM [rising, single point]"
Cc1nn(-c2ccccc2)c(C)c1CN(C)C(=O)c1ccc(S(=O)(=O)NCc2ccco2)cc1,cell number change,,-8.43%
same,AC50,[2],"29.1 µM [rising, single point]"
O=C(OCc1ccccc1)/C(=C/c1ccccc1Cl)NC(=O)c1ccco1,cell number change,,-14.2%
same,AC50,[2],"3.26 µM [rising, single point]"
CC/C(=N\O)c1ccc(O)c(OC)c1,cell number change,,-26.4%
same,AC50,[1],"0.164 µM [falling, full curve]"
same,AC50,[2],"0.731 µM [falling, full curve]"
CSCCC(NC(=O)/C(=C/c1ccc2c(c1)OCO2)NC(=O)c1cccc([N+](=O)[O-])c1)C(=O)O (stereo unspecified),cell number change,,25.3%
same,AC50,[1],"0.651 µM [rising, full curve, poor fit]"
same,AC50,[2],"0.259 µM [rising, full curve, poor fit]"
O=C(c1ccc(S(=O)(=O)N2CCCCCC2)cc1)N(c1ccccn1)C1CCCCC1,cell number change,,35.5%
same,AC50,[1],"7.31 µM [rising, partial curve, poor fit]"
Cc1[nH]nc2nc(SCC(=O)NCC3CCCO3)n(-c3ccc(Br)cc3)c(=N)c12 (stereo unspecified),cell number change,,-25.8%
CCCCNC(=S)N1CCN(Cc2ccc3c(c2)OCO3)CC1,cell number change,,-18.9%
same,AC50,[2],"2.59 µM [rising, partial curve]"
O=C(c1cc2cc([N+](=O)[O-])ccc2oc1=O)N1CCN(c2ncccn2)CC1,cell number change,,-73.8%
same,AC50,[1],"25.9 µM [falling, partial curve, poor fit]"
same,AC50,[2],"23.1 µM [falling, single point]"
Nc1nnc(SCC(=O)Nc2cccc3ccccc23)s1,cell number change,,3.85%
Cc1cc(/C=C2\SC(=O)N(C)C2=O)c(C)n1-c1ccc(S(N)(=O)=O)cc1,cell number change,,10.8%
CCc1c(C)c(C#N)c2nc3ccccc3n2c1NCCN(C)C,cell number change,,-2.83%
same,AC50,[1],"6.51 µM [rising, single point]"
same,AC50,[2],"6.51 µM [rising, single point]"
Fc1cccc(CSc2ccc3nnc(-c4ccccn4)n3n2)c1,cell number change,,-6.45%
same,AC50,[2],"1.16 µM [rising, single point]"
CCCn1c(O)c(N=NC(=O)CNC(=O)c2ccncc2)c2ccccc21,cell number change,,-0.885%
same,AC50,[2],"29.1 µM [falling, single point]"
CN(C(=O)c1cc2ccccc2oc1=O)C1(C)CCS(=O)(=O)C1 (stereo unspecified),cell number change,,34.8%
same,AC50,[1],"29.1 µM [rising, single point]"
CN(C)C(=S)NC1(C)CCS(=O)(=O)C1 (stereo unspecified),cell number change,,-26.5%
same,AC50,[1],"0.0164 µM [falling, partial curve, poor fit]"
same,AC50,[2],"0.231 µM [falling, full curve]"
C/C(CCc1ccc2c(c1)OCO2)=N\NC(=S)NC(C)C,cell number change,,31.2%
same,AC50,[1],"2.06 µM [rising, partial curve]"
same,AC50,[2],"8.2 µM [rising, partial curve, poor fit]"
CCOC(=O)C1CCN(C(=O)COC(=O)C2CCN(S(=O)(=O)c3ccc4c(c3)OCCO4)CC2)CC1,cell number change,,66.3%
same,AC50,[1],"20.6 µM [rising, partial curve, poor fit]"

# Looked up one by one from above, 3 records:
smiles,measurement,setting,value
Cc1ccc(NC(=O)NCCCN2CCCC2=O)c(C)c1,AC50,[2],"20.6 µM [rising, single point]"
S=C(NCCN(C1CCCCC1)C1CCCC1)Nc1cccc(Cl)c1,AC50,[2],"29.1 µM [falling, single point]"
CN(C)C(=S)NC1(C)CCS(=O)(=O)C1 (stereo unspecified),AC50,[2],"0.231 µM [falling, full curve]"

# Exported as tab-separated lines: part of the list above.
smiles	measurement	setting	value
O=C(CN1C(=O)C2C3C=CC(C4CC34)C2C1=O)OCC(=O)c1ccccc1 (stereo unspecified)	AC50	[1]	18.4 µM [rising, single point]
O=C(c1ccccc1)c1ccccn1	AC50	[1]	16.4 µM [falling, single point]
O=C(c1ccc(S(=O)(=O)N2CCCCCC2)cc1)N(c1ccccn1)C1CCCCC1	AC50	[1]	7.31 µM [rising, partial curve, poor fit]
